The values below come from paper PMC11412720.

The target in the assay is T1, serum apolipoprotein A1 (ApoA1)-containing lipoprotein particles (HDL fraction of fetal calf serum) (bovine (endogenous in fetal calf serum)) (UniProt P15497).
T1 sequence: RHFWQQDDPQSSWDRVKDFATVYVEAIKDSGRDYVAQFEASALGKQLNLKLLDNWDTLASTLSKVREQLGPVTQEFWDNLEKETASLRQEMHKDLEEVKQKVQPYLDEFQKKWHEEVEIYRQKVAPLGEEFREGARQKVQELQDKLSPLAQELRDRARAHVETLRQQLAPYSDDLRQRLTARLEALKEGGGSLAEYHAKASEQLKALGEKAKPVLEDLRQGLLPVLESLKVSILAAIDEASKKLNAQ
The assay can be described thus: SEC; conditioned medium with 10% FCS; Superdex200 10/300 GL, PBS, 4°C; fractions TCA-precipitated and immunoblotted (same stripped blot reprobed).

No constants are given. Whether binding was seen depends on the method and setting. Binding can be weak; no strength is given.

In the case of Drosophila Hedgehog (Hh), soluble, the binding result was “binds”.

“Drosophila Hh variant lacking its HS binding site (Hh^ΔHS)”: the binding result is “binds”.
